Measured values as given in paper PMC11018898.
Results are given in words; binding and its absence hold for the method and conditions named. Binding calls can cover weak binding; strength is not graded here. Sequences can lack the tags named with a protein.

Molecular target: Plexin B3 (zebrafish)
Experiment: alkaline phosphatase-tagged ligand binding to transfected cells; supernatant of AP-Sema3 transfected HEK293 cells applied to HEK293 cells transfected with pAG-Plexin B3 and/or pAG-Nrp1a, 1 h at room temperature; cells fixed, heated at 65°C for 90 min, stained with BCIP/NBT

binding: binds
B1: alkaline phosphatase-tagged Sema3D (ligand, UniProt Q9W6G6 42-764)
chain: MKESLPRVKLGYKDLIHSRSVVPFTGSSEGQHFQTVLLDEERSRLLLGAKDHVYLLDPDNINKHPKKLSWPASRDRVEMCILAGKNPLTECANFIRVLHSYNRTHVYACGTGAFHPTCAFLEIKGHKEDRWLLLHSNTMESGRMKCPFDPNQPFASVLTDQYLYAGTASDFLGKDSTFTRSLGPPPHQQYIRTDISEDYWINEGKFISAHPISDTYNPDDDKIYFFFREASRDGSTTDKSVLSRVARICRNDVGGLRSLTNKWTTFLKARLVCSIPGPDGVDTHFDELQDIFLLPSRDEKNPMVYGVFTTTSSIFKGSAVCVYTMEDIRAAFNGPYAHKEGPDHRWVEYEGRIPYPRPGTCPSRTYDPHIKTTKDFPDEVISFIRLHPLMYQSVHPMTGRPIFTRINTEYRLTQIIVDRVAAEDGQYAVMFLGTDMGSVLKVVSITQENWSSEEIILEELQVFKNPSPILNMEVSSKQQQLFVGGSDGLVQVSLHRCQIYGQGCAECCLARDPYCAWDGTQCSRYIPASKRRARRQDIKHGDPSSHCWDTEDVLGRNVEEKVLYGVESNSSFLECVSKSQQALIRWFVLKPGVDHRQEIKPDERVLITDRGLLIRWLQRGDAGSYFCTSQEHRFTRTLLHVSLHILDRGQINAHQPAIRESSENPAVTEPRQRYKDYLRMLSGPARSLDEYCETMWHREKKQKQKGKWKHVQELRKSRNRRHH
